No constants are given. Whether binding was seen depends on the method and setting. In cells and extracts the contact can be indirect. A yes stands for co-enrichment or nearness to the bait. Other partners may have been found.
Biological target: DjlA variant with a C-terminal HA-tag (DjlA-HA) (C. crescentus)
Assay: affinity purification with mass spectrometry

**Q.** With AcrB (from UniProt A0A0H3CCS3) as the substance, how does the binding read?
**A.** binds

From paper doi:10.1101/2023.02.20.529182
